Reference: EP2111858A1, “Novel treatment for alzheimer's disease” (EPFL Ecole Polytechnique Fédérale de Lausanne, priority 2008, dated 2009)
At least one structure is not confirmed: it was looked up by name or label, or the drawing left a doubt.

Key:
[1] = tested on: α-secretase cleavage of APP; assay: Western blot (antibody 6E10) of sAPPα secreted into conditioned media of cultured neurons; assay type: cell-based, rat; conditions: compared with control
[2] = tested on: α- and β-secretase cleavage of APP; assay: Western blot of intracellular APP-C99 and APP-C83 in rat primary neurons exposed to NMDAR modulators; assay type: cell-based; conditions: 15 DIV, compared to the untreated control, NMDA, D-serine 30µM for 3 minutes, memantine 30µM for 16 hours, DAPT 1 µM for 16 hours
Method: Neuronal cultures and treatments. Cortical and hippocampal neurons were cultured as described^27 from postnatal day 0 rats or mice and all treatments described bellow carried out at 15 days in vitro (DIV). Stimulations with 30µM N-methyl-D-aspartate (NMDA, Tocris), 30µM D-serine (the D isoform of the amino acid serine, Sigma), or a combination of NMDA + D-serine (30µM each) were carried out for 3 minutes and neurons transferred into trophically enriched medium and further incubated for 16 hours. Treatments with 30µM 1-amino-3,5-dimethyladamantane (memantine, Lucerna-Chem), 1 µM N-[N-(3,5-difluorophenacetyl)-L-alanyl]-S-phenylgly cine t-butyl ester (DAPT, ), and 1 µM phorbol 12-myristate 13-acetate (PMA, Sigma) were carried out for 16 hours. Pre-treatments with 1 µM TAPI-1 (Calbiochem), 1 µM GL189 (Calbiochem), 1,2-bis(o-aminophenoxy)ethane-N,N,N',N'-tetraacetic acid (BAPTA, Sigma), H-89, chelerythrine, or KN-62 (Biaffin GmbH & Co KG) were carried out for 1 hour. Next, neurons were treated (or not) with NMDA or NMDA + D-serine as described above, and cells transferred into trophically enriched medium and incubated for additional 15 hours. Whole cell lysates were prepared for Western blot analysis as described below.
Western blotting and antibodies. […]

## CN[C@H](CC(=O)O)C(=O)O [NMDA, N-methyl-D-aspartate]
[1]
  secretion of sAPPα: reduced
[2]
  intracellular accumulation of APP-C99 and APP-C83: intracellular accumulation of APP-C99
